Patent publication US20250302974A1, “LECTIN-DRUG CONJUGATES” (UNICHEM LABORATORIES LIMITED, priority 2021, published 2025)
For at least one compound, name, drawing or mass did not settle the structure. Square brackets hold non-standard residues; d marks the D form. Peptide text beside a SMILES is read from it. * marks the point of attachment. Dolaproine = CO[C@@H]([C@@H]1CCCN1)[C@@H](C)C(=O)O; Dil = CC[C@H](C)[C@H](NC)[C@@H](CC(=O)O)OC; X1 = C[C@@H](N*)[C@@H](O)c1ccccc1; NMeV = CN[C@H](C(=O)O)C(C)C

Assays:
[1] = tested on: T24 Bladder; assay: Cytotoxic effect by MTT assay, 48 h; conditions: read-out: IC50 Values, after 48 h of treatment
Procedure: (§1) Cells were treated with Test Items at various concentrations (0.0001 μM-10 μM) for 48 h. The cells corresponding to Positive Control group were treated with Doxorubicin at a concentration ranging from 0.1 μM-100 μM. The Untreated cells were used as Control. After 48 h of incubation, the effect of Test Items on cytotoxicity of cells was determined by MTT assay, the plates were taken out and 20 μl of 5 mg/m1 of MTT 3-(4,5-dimethythiazol-2-yl)-2,5-diphenyl tetrazolium bromide solution was added to all the wells. Cells were incubated for 3 h at 37° C. The supernatant was aspirated. 150 μl of DMSO was added to each well to dissolve formazan crystals. The absorbance of each well was then read at 540 nm using Synergy HT micro plate reader.
(§2) The % Cytotoxicity was calculated using the formula:
(§3) Where, X=Absorbance of cells treated with Test Item; R=Absorbance of Control cells (Untreated cells maintained in growth medium only).
(§4) Selectivity Index was calculated using the formula:
(§5) SI=IC50 in Normal cell/IC50 in cancer cell.
(§6) Activity scores of the Selective Index values were categorized as: • Not selective (SI value ≤1) • Moderately selective (1<SI value <5) • Selective (SI value ≥5)

[2] = tested on: U251 MG Brain; assay: Cytotoxic effect by MTT assay, 48 h; conditions: read-out: IC50 Values, after 48 h of treatment
Procedure: as §1, §2, §3, §4, §5, §6

CC[C@H](C)[C@@H]([C@@H](CC(=O)N1CCC[C@H]1[C@H](OC)[C@@H](C)C(=O)N[C@H](C)[C@@H](O)c1ccccc1)OC)N(C)C(=O)[C@@H](NC(=O)[C@@H](NC)C(C)C)C(C)C [MMAE, monomethyl auristatin E] (H-[NMeV]V[Dil][Dolaproine]-X1)
IC50 [1]: 10 pM
IC50 [2]: 200 pM
